The other results are listed elsewhere or left out. These are further read-outs of the screen, such as a control signal, another cell line or another target. No call is given for them. The list favours compounds with an active or inconclusive main result. Words in brackets tell the shape of the fitted curve; partial curves, single points and poor fits give uncertain potencies.
Experiment: qHTS Assay to Find Inhibitors of Chronic Active B-Cell Receptor Signaling
Details: ABC-DLBCL IkBa-CBG/CBR reporter, luminescence ratio (green luciferase fused to IkBa over red control in TMD8 lymphoma cells), 4 h
How it was run: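 Cell line TMD8 (human ABC DLBCL), stably expressing tet-inducible CBG68-IkBa fusion and CBR; IMDM/0.5% FBS; cpd up to 46 uM; dox induction, 4 h, 37C/5% CO2; dual luminescence; green/red ratio; MG132 control.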

[1] = measured here: CBR red luminescence, cell number
[2] = measured here: IkBa-CBG green luminescence

Compound	AC50 [1]	AC50 [2]
CCOC(=O)c1cnc2c(-c3ccc(F)cc3)cnn2c1C(F)(F)F	8.91 µM [falling, partial curve]	–
CCC(C)[C@H](NC(=O)C1CCN(C(=O)[C@H](Cc2ccccc2)NC(=O)OC(C)(C)C)CC1)C(=O)O (stereo not given in full)	35.5 µM [falling, partial curve, poor fit]	–
N#C/C(=C\c1ccc(O)c(Br)c1)C(=O)NCc1ccccc1	22.4 µM [falling, single point]	35.5 µM [rising, single point]
CCCN(CCC)CCNc1c(NC2CCN(C(=O)OCC)CC2)c(=O)c1=O	2.06 µM [rising, partial curve, poor fit]	–
CC(=O)c1cccc(Nc2nc(-c3sc(C)nc3C)cs2)c1	2.51 µM [rising, partial curve, poor fit]	–
CCOc1ccc(C(=O)Nc2cccc(-c3ccc(N4CCOCC4)nn3)c2)cc1OCC	20.6 µM [falling, single point]	–
COc1ccccc1Oc1ccc(N/C=C/C(=O)c2ccc(C)o2)cc1	35.5 µM [falling, single point]	–
CC(C)c1ccc(N=C(N)N=C(N)N)cc1	25.1 µM [falling, partial curve, poor fit]	–
O=C(O)CCCCCNS(=O)(=O)c1c(Cl)cccc1Cl	–	6.51 µM [rising, partial curve, poor fit]
O=c1oc(-c2cccs2)nc2ccc(Br)cc12	3.55 µM [falling, full curve]	–
CCSc1nnc(NC(=O)CSc2ncccn2)s1	29.1 µM [falling, single point]	–
Cc1ccc(-c2nc3cnccn3c2Nc2c(C)cccc2C)o1	35.5 µM [falling, single point]	–
Cc1[nH]c2ccc(F)cc2c1CCN(Cc1cccnc1)C(=S)Nc1cccc(F)c1	8.91 µM [falling, partial curve, poor fit]	–
COc1ccc(CNc2nn[nH]n2)cc1OC	29.1 µM [rising, single point]	–
O=c1oc(-c2ccc([N+](=O)[O-])cc2)nc2ccc(O)cc12	0.562 µM [falling, full curve]	–
C=CCn1c(CSc2nc3ccccc3s2)n[nH]c1=S	–	20 µM [falling, single point]
CCOC(=O)CCNC(=O)N1CCCC(C(=O)c2ccc3c(c2)OCO3)C1 (stereo not given)	15.8 µM [rising, partial curve]	–
COc1cc(/C=N/Nc2ccc(F)cc2F)cc(OC)c1O	4.11 µM [falling, full curve]	–
CC(C)(C)c1cc(CP(=O)(c2ccccc2)c2ccccc2)cc(C(C)(C)C)c1O	12.6 µM [falling, partial curve]	7.94 µM [rising, partial curve, poor fit]
CNC(=O)c1c(NC(=O)c2cc(-c3cc(C)c(C)cc3O)n[nH]2)sc2c1CCCC2	3.16 µM [rising, single point]	–
FC(F)(F)c1cc(CO[C@@H]2CCCN[C@@H]2c2ccccc2)cc(C(F)(F)F)c1	29.1 µM [falling, single point]	–

Compound	AC50 [1]	AC50 [2]
Cc1cc(C)nc(Sc2ncnc(N)c2[N+](=O)[O-])n1	7.94 µM [falling, partial curve]	–
CC(C)(C)OC(=O)NCc1ccc(CNC(=O)c2nc[nH]c2C(=O)N2CCN(C(=O)OC(C)(C)C)CC2)cc1	5.17 µM [falling, single point]	–
COc1cccc(CN(C(=O)/C=C/c2ccco2)C2CCS(=O)(=O)C2)c1 (stereo not given)	12.6 µM [rising, partial curve, poor fit]	–
COc1cc(/C=C2/C(=O)ON=C2C)ccc1OCc1ccccc1F	10 µM [falling, partial curve, poor fit]	–
CCOc1ccc(N(CC(=O)NCc2ccc(Cl)cc2)S(=O)(=O)c2ccccc2)cc1	12.6 µM [rising, partial curve, poor fit]	–
O=C(NC1CCC(O)CC1)C1CCN(S(=O)(=O)c2c(Cl)cccc2Cl)CC1 (stereo not given)	14.6 µM [rising, partial curve, poor fit]	–
CC(=O)N1N=C(c2ccncc2)OC1(Cc1ccccc1)Cc1ccccc1	25.1 µM [falling, single point]	–
CC(Sc1nnc(-c2ccccc2F)n1C1CC1)C(N)=O (stereo not given)	0.501 µM [falling, partial curve, poor fit]	–
Cc1cc(C)c2c(N=NN3CCCCC3)[nH]nc2n1	2.31 µM [falling, full curve]	2.59 µM [rising, full curve, poor fit]
COc1ccc(C2c3c(ncn(CCN4CCOCC4)c3=N)Oc3ccc4ccccc4c32)cc1OC (stereo not given)	15.8 µM [falling, single point]	–
COCCNC(=O)C(OC(=O)CC1Sc2ccccc2NC1=O)c1ccccc1 (stereo not given)	1.16 µM [rising, full curve]	–
COc1ccccc1N1CN(Cc2ccccc2)CNC1=S	35.5 µM [falling, single point]	–
COc1ccccc1-n1ccnc(SCC(=O)NCc2ccccc2Cl)c1=O	0.651 µM [falling, full curve, poor fit]	–
O=C(Nc1ccccc1Br)c1ccccc1-c1ccccc1	29.1 µM [rising, partial curve, poor fit]	–
O=C(NCCC1=CCCCC1)c1ccc2c(c1)N(Cc1ccccc1)C(=O)CS2	2.06 µM [rising, full curve]	–
CC(=O)Nc1ccc(-c2nc3cc(Cl)ccc3o2)cc1	0.0891 µM [rising, full curve, poor fit]	–
Cc1csc(NC(=O)c2ccc3ccccc3n2)n1	11.2 µM [falling, single point]	–
CC1Cc2ccccc2N1C(=O)Cn1nc(C(=O)O)c2ccccc2c1=O (stereo not given)	12.6 µM [falling, partial curve]	–
CCOc1ccc(C(=O)NCC(=O)OCC(=O)N2CCCCC2)cc1	29.1 µM [falling, single point]	–
Nc1nc(SCc2ccc([N+](=O)[O-])cc2)nc2nc3c(cc12)CCCC3	0.651 µM [rising, full curve, poor fit]	–
O=C(Nc1ccccc1OC(=O)c1ccc(Cl)cc1)c1ccc(Cl)cc1	14.6 µM [falling, partial curve, poor fit]	–

Compound	AC50 [1]	AC50 [2]
CC(C)(C)C(=O)NCc1ccc(C(=O)CN2C(=O)NC3(CCCC3)C2=O)s1	14.6 µM [rising, partial curve, poor fit]	–
CCC(C)NC(=O)CN(c1ccc(OC)cc1)S(=O)(=O)c1ccc(NC(C)=O)cc1 (stereo not given)	35.5 µM [rising, single point]	–
CCOc1cc(/C=N/Nc2cc(C)nc(-n3nc(C)cc3C)n2)ccc1O	0.891 µM [falling, partial curve, poor fit]	–
FC(F)(F)c1ccc(NCc2ccccn2)nc1	0.708 µM [rising, partial curve, poor fit]	–
Cc1cccc(C)c1NC(=O)CNC(=O)c1cnccn1	0.0291 µM [rising, full curve, poor fit]	–
CCOc1ccc(NCc2nc3ccccc3n2CCOc2ccccc2)cc1	7.31 µM [falling, partial curve]	–
Cn1c(=O)cc(OCCCC(=O)NCCN2CCN(c3ccccc3F)CC2)c2ccccc21	0.517 µM [rising, partial curve, poor fit]	–
CS(=O)(=O)c1ccc2nc(NC(=O)c3ccccc3)sc2c1	11.2 µM [falling, partial curve, poor fit]	–
COc1cc2c(cc1OC)C(Cc1ccc(O)cc1)N(C)CC2 (stereo not given)	2.91 µM [rising, partial curve, poor fit]	–
c1cc2c(cc1C1CCCCC1)c1c3n2CCCNC3CCC1 (stereo not given)	16.4 µM [falling, partial curve]	–
COC(=O)[C@H](Cc1ccccc1)NC(=O)O[C@@H]1C(=O)c2cc(OC)ccc2O[C@H]1c1ccc(OC)c(Br)c1	0.082 µM [rising, full curve, poor fit]	–
O=C(O)/C=C/C(=O)Nc1ccccc1C(=O)OCC(=O)c1ccc2c(c1)OCCO2	35.5 µM [falling, single point]	–
Cc1ccc(/C=C(\C#N)C(=O)N2CCCC2)c(C)c1	35.5 µM [falling, partial curve, poor fit]	–
CCOc1ccc(-c2c(C(=O)N/N=C/c3ccc(Cl)cc3)nnn2-c2nonc2N)cc1	12.6 µM [rising, partial curve, poor fit]	–
CC(OC(=O)c1ccc2c(c1)C(=O)N(Cc1ccncc1)C2=O)C(=O)Nc1cccc(Cl)c1Cl (stereo not given)	23.1 µM [rising, partial curve, poor fit]	–
CCN(CC)S(=O)(=O)c1ccc(N2CCN(C)CC2)c(NC(=O)Nc2ccc(C)cc2)c1	28.2 µM [falling, partial curve, poor fit]	–
Cc1ccccc1NC(=O)c1ccc2nccnc2c1	12.6 µM [falling, partial curve]	–
Cc1nnc(NC(=O)c2ccc(S(=O)(=O)N3CCCCC3C)cc2)o1 (stereo not given)	–	25.1 µM [falling, single point]
O=C(NC(=S)N1CCN(c2ccccn2)CC1)c1ccco1	0.112 µM [rising, full curve, poor fit]	–
O=C(O)c1cccc(CSc2nnc(COc3ccccc3)o2)c1	32.6 µM [rising, single point]	–
